Results on 3 molecules are retold here after paper PMC5253704.

The chains behind the UniProt entries cited, without tags or fusion partners. Residues count along the entry.
UniProt P09038, residues 143-288: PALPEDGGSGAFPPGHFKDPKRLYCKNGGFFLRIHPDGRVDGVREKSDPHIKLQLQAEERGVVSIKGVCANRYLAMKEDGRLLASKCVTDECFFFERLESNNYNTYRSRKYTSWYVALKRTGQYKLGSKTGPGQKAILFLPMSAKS
UniProt O88207, residues 37-1838: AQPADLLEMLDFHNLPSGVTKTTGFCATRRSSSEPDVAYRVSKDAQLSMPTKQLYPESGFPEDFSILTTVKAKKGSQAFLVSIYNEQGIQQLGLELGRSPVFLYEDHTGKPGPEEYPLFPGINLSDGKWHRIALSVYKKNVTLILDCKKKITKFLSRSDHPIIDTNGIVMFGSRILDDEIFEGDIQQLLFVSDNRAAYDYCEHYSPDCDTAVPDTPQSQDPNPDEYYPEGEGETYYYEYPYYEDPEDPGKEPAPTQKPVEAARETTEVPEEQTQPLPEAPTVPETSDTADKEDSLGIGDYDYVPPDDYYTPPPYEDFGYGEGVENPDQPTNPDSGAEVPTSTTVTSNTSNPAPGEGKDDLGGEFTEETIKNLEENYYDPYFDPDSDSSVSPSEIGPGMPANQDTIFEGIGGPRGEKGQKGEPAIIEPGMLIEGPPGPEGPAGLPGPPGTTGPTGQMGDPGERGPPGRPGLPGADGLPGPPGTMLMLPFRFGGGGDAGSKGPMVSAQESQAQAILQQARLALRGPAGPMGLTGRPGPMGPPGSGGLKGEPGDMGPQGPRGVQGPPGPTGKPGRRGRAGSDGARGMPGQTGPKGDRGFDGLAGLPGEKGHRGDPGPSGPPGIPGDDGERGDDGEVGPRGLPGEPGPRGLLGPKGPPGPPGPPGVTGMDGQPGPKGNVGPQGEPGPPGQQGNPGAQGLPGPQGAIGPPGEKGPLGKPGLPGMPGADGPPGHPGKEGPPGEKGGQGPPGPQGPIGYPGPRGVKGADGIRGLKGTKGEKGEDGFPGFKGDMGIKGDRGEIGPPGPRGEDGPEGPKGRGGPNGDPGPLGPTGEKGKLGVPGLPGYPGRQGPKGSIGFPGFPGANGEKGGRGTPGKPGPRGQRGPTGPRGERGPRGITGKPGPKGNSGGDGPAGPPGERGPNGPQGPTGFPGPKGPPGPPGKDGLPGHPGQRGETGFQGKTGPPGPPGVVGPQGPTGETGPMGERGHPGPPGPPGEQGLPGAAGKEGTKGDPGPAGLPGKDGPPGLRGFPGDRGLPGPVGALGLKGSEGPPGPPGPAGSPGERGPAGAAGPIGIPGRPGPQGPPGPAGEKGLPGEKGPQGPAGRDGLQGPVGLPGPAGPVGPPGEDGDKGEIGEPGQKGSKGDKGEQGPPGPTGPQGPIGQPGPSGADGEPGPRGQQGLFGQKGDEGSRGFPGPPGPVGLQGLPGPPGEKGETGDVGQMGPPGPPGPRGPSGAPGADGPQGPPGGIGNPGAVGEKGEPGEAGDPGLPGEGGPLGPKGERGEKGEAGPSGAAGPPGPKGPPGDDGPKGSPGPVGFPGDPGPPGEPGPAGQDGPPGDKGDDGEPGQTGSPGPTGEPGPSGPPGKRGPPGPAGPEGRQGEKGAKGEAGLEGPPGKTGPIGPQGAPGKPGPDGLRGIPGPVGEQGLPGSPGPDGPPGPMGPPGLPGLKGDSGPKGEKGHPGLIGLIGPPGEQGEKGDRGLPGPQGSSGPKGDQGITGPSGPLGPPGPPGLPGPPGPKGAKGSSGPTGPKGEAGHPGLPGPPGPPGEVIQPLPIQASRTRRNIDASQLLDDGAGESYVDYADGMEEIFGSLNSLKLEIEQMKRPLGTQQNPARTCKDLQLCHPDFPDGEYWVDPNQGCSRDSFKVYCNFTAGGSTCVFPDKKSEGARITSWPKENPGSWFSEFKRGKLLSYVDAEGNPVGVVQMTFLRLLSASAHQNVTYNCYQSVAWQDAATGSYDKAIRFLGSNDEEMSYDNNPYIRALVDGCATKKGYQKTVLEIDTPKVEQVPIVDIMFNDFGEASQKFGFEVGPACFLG

Results are given in words; binding and its absence hold for the method and conditions named. For part of these data: Binding seen in cells or lysates may run through a third protein. Some entries that bind do so weakly or less than the wild type.

The target of assay [1] is T1, recombinant glypican-1 (R&D Systems) (UniProt P35052).
T1 sequence: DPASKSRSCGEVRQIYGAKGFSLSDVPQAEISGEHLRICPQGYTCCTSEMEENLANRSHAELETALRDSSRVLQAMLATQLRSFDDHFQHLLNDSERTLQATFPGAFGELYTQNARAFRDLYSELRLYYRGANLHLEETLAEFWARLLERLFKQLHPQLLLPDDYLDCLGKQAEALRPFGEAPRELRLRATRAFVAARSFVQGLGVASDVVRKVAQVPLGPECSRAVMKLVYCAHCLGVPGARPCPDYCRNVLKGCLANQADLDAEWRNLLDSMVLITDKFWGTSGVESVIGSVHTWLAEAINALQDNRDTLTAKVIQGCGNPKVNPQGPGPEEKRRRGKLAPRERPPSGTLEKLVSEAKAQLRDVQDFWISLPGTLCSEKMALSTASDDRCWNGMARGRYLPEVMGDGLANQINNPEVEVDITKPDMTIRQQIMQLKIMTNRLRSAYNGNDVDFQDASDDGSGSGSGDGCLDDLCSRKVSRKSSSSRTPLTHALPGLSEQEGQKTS
Kind of assay: co-IP; combinations of 50 ng GPC1, 100 ng α3(V)-NTD and 15 ng FGF2 preincubated 3 h in buffer A (20 mM Tris-HCl pH 7.5, 150 mM NaCl, 1 mM ZnCl2, 1 mM CaCl2, 1 mM MgCl2, 0.1% Triton X-100, 1 μg/ml BSA), antibody 2 h, protein G or A agarose overnight 4 °C; immunoblot; both purified. In general terms: Immunoblotting shows a protein as a band on a membrane.

Assay [2] addresses T2, glypican-1, endogenous in WT/PyMT mouse mammary tumours (mouse (endogenous in MMTV-PyMT tumours)) (UniProt Q9QZF2).
T2 sequence: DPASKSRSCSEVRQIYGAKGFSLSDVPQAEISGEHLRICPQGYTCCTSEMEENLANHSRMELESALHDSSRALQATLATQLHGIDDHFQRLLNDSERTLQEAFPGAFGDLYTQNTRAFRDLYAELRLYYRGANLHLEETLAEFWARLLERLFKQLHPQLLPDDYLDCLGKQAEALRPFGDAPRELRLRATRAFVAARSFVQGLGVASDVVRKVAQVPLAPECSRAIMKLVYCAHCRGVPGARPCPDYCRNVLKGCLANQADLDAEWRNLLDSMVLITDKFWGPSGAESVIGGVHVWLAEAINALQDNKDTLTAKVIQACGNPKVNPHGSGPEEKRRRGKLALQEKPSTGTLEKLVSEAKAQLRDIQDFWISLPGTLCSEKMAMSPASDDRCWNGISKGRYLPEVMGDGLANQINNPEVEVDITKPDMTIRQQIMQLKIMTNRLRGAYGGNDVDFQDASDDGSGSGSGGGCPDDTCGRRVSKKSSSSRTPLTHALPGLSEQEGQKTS
Kind of assay: co-IP; immunoprecipitation of endogenous proteins from WT/PyMT (and KO/PyMT) tumour extracts in RIPA buffer, 0.3 mg protein per ml, 900 μl; protein G or A agarose, overnight 4 °C; immunoblot.

Assay [3] deals with recombinant FGF2 (UniProt P09038). Kind of assay: co-IP; combinations of 50 ng GPC1, 100 ng α3(V)-NTD and 15 ng FGF2 preincubated 3 h in buffer A (20 mM Tris-HCl pH 7.5, 150 mM NaCl, 1 mM ZnCl2, 1 mM CaCl2, 1 mM MgCl2, 0.1% Triton X-100, 1 μg/ml BSA), antibody 2 h, protein G or A agarose overnight 4 °C; immunoblot; both purified.

As to “recombinant FGF2 (from UniProt P09038 143-288) (ligand)”, the binding result in assay [1] was “binds”. As for “α1(V) collagen chain, endogenous in WT/PyMT mouse mammary tumours (from UniProt O88207 37-1838)”, the binding entry in assay [2] was “binds”.

B1: recombinant glypican-1 (R&D Systems) (protein, UniProt P35052 24-530)
chain: T1 sequence
Take B1: in assay [3], the binding entry is “binds”.
